In PubChem BioAssay AID2810 (NMMLSC, 2010):
Some of the results follow. The main result of the screen is listed elsewhere. These columns were measured beside it and carry no call.

Experiment: modulators of CD8 T cell-vesicle binding, confirmation, cherry-picked primary hits, two concentrations (AID 2810);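 note: lower values mean blocking of vesicle binding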;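 for percent response (vesicle binding): ratio of mean FL2 vesicle stain of CD8+ cells to that row's control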
Settings: 2C CD8+ T cell-vesicle binding, flow cytometry; for double positive events: CD8+/vesicle+ events
[1] = at 15.4 µM, stronger effect = lower value

| Compound | double positive events (at 7.7 µM) [%] | double positive events [1] [%] | percent response (vesicle binding) (at 7.7 µM) [%] |
| --- | --- | --- | --- |
| COC(=O)C1=C(c2ccc(F)cc2F)C[C@@H]2CC[C@H]1N2C(=O)NCCNC(C)=O | 12.8 | 7.1 | 114 |
| COCCCn1c(N)c(C(=O)Nc2sc3c(c2C(=O)OC)CCCC3)c2nc3ccccc3nc21 | 4.9 | 36.1 | 217 |
| CCCCn1c(=O)c(C(=O)NCc2ccncc2)c(O)c2ccccc21 | 28.4 | 16.7 | 252 |
| CC1CCCN(C(=O)c2ccc(N3CC4CC(C3)c3cccc(=O)n3C4)c([N+](=O)[O-])c2)C1 (stereo not drawn) | 7.8 | 22.2 | 248 |
| COC(=O)C1=C(c2ccccc2OCc2ccccc2)C[C@@H]2CC[C@H]1N2C(=O)NCc1ccc(Br)cc1 | 32.4 | 29 | 183 |
| CN1[C@H]2CC[C@@H]1C(C(=O)N1CCOCC1)=C(O)C2 | 13.1 | 23.1 | 189 |
| CC(C)(O)C(=O)Nc1ccc([N+](=O)[O-])c(C(F)(F)F)c1 | 5.6 | 3.6 | 225 |
| COC(=O)C1=C(c2c(C)noc2C)C[C@@H]2CC[C@H]1N2C(=O)NCCOc1ccccc1Cl | 18.8 | 16 | 193 |
| CCC(=NCCOc1ccc(Cl)cc1)c1c(O)n(C)c(=O)n(C)c1=O | 23.2 | 18 | 709 |
| COc1ccccc1NC(=O)COC(=O)c1cc(C)n(C2CC2)c1C | 8.2 | 15 | 315 |
| COc1ccc(CC[n+]2cc(/N=C(\C)[O-])on2)cc1OC | 23.3 | 10 | 430 |
| CNCCCc1ccccc1 | 34.3 | 26.2 | 368 |
| CCCCCCC[n+]1ccc(-c2cc[n+](CCCCCCC)cc2)cc1 | 7.4 | 26.3 | 223 |
| CCCNC(=O)N1[C@H]2CC[C@@H]1C(C(=O)OC)=C(c1ccc(F)cc1OCc1ccccc1)C2 | 16.1 | 28.8 | 179 |
| COC(=O)C1=C(c2c(C)noc2C)C[C@@H]2CC[C@H]1N2C(=O)NCc1ccc(F)cc1 | 12.1 | 21.1 | 112 |
| CN(C(=O)COC(=O)c1cn(C)c2ccccc12)C1CCCCC1 | 6.9 | 27.9 | 181 |
| COC(=O)C1=C(c2ccc(F)cc2OCc2ccccc2)C[C@@H]2CC[C@H]1N2C(=O)N1CCC(O)CC1 | 16.2 | 26.6 | 189 |
| O=S(=O)(c1ccccc1)N1CCCCC1c1cccnc1 (stereo not drawn) | 31.8 | 10.5 | 199 |

| Compound | double positive events (at 7.7 µM) [%] | double positive events [1] [%] | percent response (vesicle binding) (at 7.7 µM) [%] |
| --- | --- | --- | --- |
| CCCCn1c(O)c(C(CC)=NCc2ccc3c(c2)OCO3)c(=O)[nH]c1=O | 18.7 | 5.7 | 107 |
| C[C@]12CCC3C(CC[C@H]4C[C@@H](O)CC[C@]34C)C1CC[C@@H]2OC(=O)[C@H](N)CCCCN (stereo partly drawn) | 24.1 | 30.1 | 177 |
| Cc1ccc(-c2nc3ccccc3c(=O)n2-c2ccccn2)cc1 | 26.1 | 19.6 | 125 |
| C=CC(=O)NCNC(=O)C=C | 13.5 | 9.1 | 520 |
| O=C(O)c1cccc(N=Nc2c(O)[nH]c(=O)[nH]c2=O)c1 | 10.2 | 37.4 | 318 |
| COC(=O)C1=C(c2ccc(OCc3ccccc3)cc2)C[C@@H]2CC[C@H]1N2C(=O)NCc1ccc(N(C)C)cc1 | 13.6 | 18.1 | 125 |
| Cc1cc(C(=O)OCC(=O)Nc2ccc(F)cc2)c(C)n1C1CC1 | 21.1 | 25.7 | 602 |
| O=[N+]([O-])c1cccc(CN2CCN(Cc3ccc(Cl)cc3)CC2)c1 | 26 | 10.9 | 219 |
| Cc1ccc(C)c(CN2CCC(n3nnc4cc(F)ccc43)CC2)c1 | 10.3 | 20.1 | 134 |
| COc1ccc(CNCCc2c(C)[nH]c3ccc(OC(F)(F)F)cc23)c(OC)c1 | 34.4 | 6.7 | 676 |
| COc1ccc2c3c1OC1[C@H](O)CCC4[C@@H](C2)N(C)CC[C@]314 (stereo partly drawn) | 4.6 | 15.2 | 85.6 |
| COC(=O)C1=C(c2ccc3ccccc3c2)C[C@@H]2CC[C@H]1N2C(=O)NCc1ccc(F)cc1 | 6.8 | 24 | 105 |
| COC(=O)C1=C(c2ccc(F)cc2OCc2ccccc2)C[C@@H]2CC[C@H]1N2C(=O)NCc1ccc([N+](=O)[O-])cc1 | 15.3 | 19.7 | 109 |
| CCOC(=O)CC(NC(=O)C(Cc1ccc(N(CCCl)CCCl)cc1)NC(C)=O)C(=O)OCC (stereo not drawn) | 15 | 18.5 | 273 |
| Fc1ccccc1CCNCc1ccccc1 | 13.1 | 27.5 | 289 |
| CNCCc1ccccc1 | 16.3 | 6.8 | 286 |
| O=C(Nc1ccc(Cl)cc1)O/N=C(\c1ccccc1)c1ccccn1 | 9.3 | 6.7 | 237 |
| c1cc2c(cc1[C@H]1OC[C@H]3[C@@H]1CO[C@H]3c1ccc3c(c1)OCO3)OCO2 | 26.4 | 30 | 244 |

Exported with bars between the fields: two of the compounds above
Compound | double positive events (at 7.7 µM) [%] | double positive events [1] [%] | percent response (vesicle binding) (at 7.7 µM) [%]
COC(=O)C1=C(c2ccc(OCc3ccccc3)cc2)C[C@@H]2CC[C@H]1N2C(=O)NCc1ccc(N(C)C)cc1 | 13.6 | 18.1 | 125
COC(=O)C1=C(c2ccc(F)cc2OCc2ccccc2)C[C@@H]2CC[C@H]1N2C(=O)NCc1ccc([N+](=O)[O-])cc1 | 15.3 | 19.7 | 109
